Source: patent publication US9561201B2, “Therapeutic compounds” (Fibrotech Therapeutics Pty Ltd, priority 2006, dated 2017)

Tested on: STZ diabetic (mRen-2)27 rats
Experiment: Diabetic (mRen-2)27 rats treated with FT011
Assay type: in vivo
Conditions: 16 weeks
[1] = diabetic rats + FT011 100 mg/kg bid gavage
[2] = non-diabetic control rats + FT011 100 mg/kg bid gavage

C#CCOc1ccc(/C=C/C(=O)Nc2ccccc2C(=O)O)cc1OC [Analogue 11]
Body Weight [1]: 278 ± 12 Gram
Plasma Glucose [1]: 30 ± 1.5 mmol/L
Body Weight [2]: 309 ± 7 Gram
Plasma Glucose [2]: 7 ± 0.2 mmol/L
